The other results are listed elsewhere or left out. The main result of the screen is listed elsewhere. These columns were measured beside it and carry no call. Compounds called inactive in the main read-out are mostly missing here. Potencies come from curve fits of mixed quality, noted in brackets.
Test: qHTS Assay to Find Inhibitors of Chronic Active B-Cell Receptor Signaling
Conditions: ABC-DLBCL IkBa-CBG/CBR reporter, luminescence ratio (green luciferase fused to IkBa over red control in TMD8 lymphoma cells), 4 h
In short: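 TMD8 human ABC-DLBCL cells with doxycycline-inducible IκBα–green luciferase fusion and unfused red luciferase, in 0.5% FBS medium; compounds up to 46 uM, 4 h at 37C. Green/red luminescence ratio, filter-overlap corrected, fitted to concentration-response curves.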

[1] = measured here: CBR red luminescence, cell number
[2] = measured here: IkBa-CBG green luminescence

CNS(=O)(=O)c1ccc(NC(=O)c2cncc(Br)c2)cc1
AC50 [1]: 0.112 µM [rising, full curve, poor fit]

COc1cccc(-n2cc(CNCc3cn(C)nc3-c3ccccc3F)cn2)c1
AC50 [1]: 1.78 µM [rising, partial curve, poor fit]
AC50 [2]: 11.2 µM [rising, single point]

COCCn1c(=NC(=O)CSCC(=O)Nc2cc(C)on2)sc2cc(C(=O)OC)ccc21
AC50 [1]: 0.92 µM [rising, full curve, poor fit]

CC(=O)c1cccc(NC(=O)c2cc(C(C)C)on2)c1
AC50 [1]: 22.4 µM [falling, single point]

COc1cccc(N2CCN(CC(=O)Nc3nnc(-c4ccccc4)s3)CC2)c1
AC50 [1]: 13 µM [rising, partial curve, poor fit]

CC(C)CNC(=O)c1cccc(NC(=O)C2CCCO2)c1 (stereo unspecified)
AC50 [1]: 18.4 µM [rising, partial curve, poor fit]

CCn1c(SC(C)C(=O)NCC2CCCO2)nc2ccccc21 (stereo unspecified)
AC50 [1]: 13 µM [rising, partial curve]

CCN=C1NN=C(c2ccc(C)cc2)CS1
AC50 [1]: 0.631 µM [rising, partial curve, poor fit]

COc1ccccc1-n1c(CNC(=O)c2ccco2)n[nH]c1=S
AC50 [1]: 7.08 µM [falling, partial curve, poor fit]

COc1ccc(-c2nc(SCC(=O)NCc3ccco3)c(-c3ccccc3)[nH]2)cc1OC
AC50 [1]: 29.1 µM [falling, partial curve, poor fit]

COc1ccc(CN(CCCN2CCOCC2)C(=O)Nc2ccccc2)cc1OC
AC50 [1]: 35.5 µM [rising, single point]

N/C(=N\OC(=O)c1ccccc1Br)c1ccc([N+](=O)[O-])cc1
AC50 [1]: 12.6 µM [rising, partial curve, poor fit]

C[N+]1(CC2COC3(CCCCC3)O2)CCCCC1 (stereo unspecified)
AC50 [1]: 15.8 µM [falling, partial curve, poor fit]

CCc1ccc(Nc2cc(C(=O)NCCCN3CCOCC3)c3ccccc3n2)cc1
AC50 [2]: 1.03 µM [rising, partial curve, poor fit]

Cc1occc1C(=O)Nc1ccc2ccccc2c1
AC50 [1]: 22.4 µM [falling, partial curve]

Cc1ccc(S(=O)(=O)N2CCOCC2)cc1C(=O)Nc1ccc2c(c1)OCCO2
AC50 [1]: 23.1 µM [falling, partial curve, poor fit]

CCOc1ccc(OCC)c(NC(=O)C2CCCN(S(=O)(=O)c3cnc[nH]3)C2)c1 (stereo unspecified)
AC50 [1]: 2.59 µM [falling, partial curve]

CCOc1ccc(NC(=O)Nc2nc3ccc(S(C)(=O)=O)cc3s2)cc1
AC50 [1]: 22.4 µM [rising, single point]

COc1cc(NC(=O)c2onc(C)c2Cl)c(OC)cc1Cl
AC50 [1]: 14.6 µM [rising, single point]

Cc1c(Cl)cccc1NC(=O)c1cc(-c2ccccc2O)n[nH]1
AC50 [1]: 5.17 µM [falling, partial curve, poor fit]

CC1CCCCC1NC(=O)C1CCC(CNS(=O)(=O)c2ccc(F)cc2)CC1 (stereo unspecified)
AC50 [1]: 35.5 µM [falling, single point]

CCOC(=O)c1c(NC(=O)CSc2nnc(CN3CCOCC3)n2C)sc2c1CCCC2
AC50 [1]: 14.6 µM [falling, partial curve]

COc1ccccc1NC(=O)Nc1ccc(F)c(F)c1
AC50 [1]: 14.1 µM [falling, single point]

Cc1ccc(C(=O)N2C(=O)C(c3ccccc3)Oc3ccccc32)cc1 (stereo unspecified)
AC50 [1]: 35.5 µM [rising, single point]

Cc1cc2[nH]c3ccccc3c2c(C)n1
AC50 [1]: 18.4 µM [falling, single point]

CC(C)c1ccc(OCC(=O)N2CCc3ccccc3C2)cc1
AC50 [1]: 17.8 µM [rising, single point]

CCc1nnc(NC(=O)CSc2ncc(-c3ccccc3)n2CC)s1
AC50 [1]: 35.5 µM [falling, single point]

COC(=O)c1sc2ncccc2c1OCc1ccccc1Cl
AC50 [1]: 7.94 µM [rising, partial curve, poor fit]

O=C1C(=O)N(CC2CCCO2)C(c2ccco2)/C1=C(/O)c1ccc(F)cc1 (stereo unspecified)
AC50 [1]: 7.08 µM [rising, partial curve, poor fit]

N#Cc1ccc(/C=N/NC(=O)c2ccccc2F)cc1
AC50 [1]: 7.31 µM [falling, partial curve]

O=C(COC(=O)c1ccc(Cl)nc1)NCCc1ccccc1
AC50 [1]: 32.6 µM [rising, single point]

CN1C(=O)c2cccc3c(S(=O)(=O)N(C)C)ccc1c23
AC50 [1]: 14.1 µM [rising, partial curve, poor fit]
AC50 [2]: 28.2 µM [falling, single point]

COc1ccc2cc(C(c3nnnn3CCc3ccccc3)N3CCCC(C)C3)c(=O)[nH]c2c1 (stereo unspecified)
AC50 [1]: 12.6 µM [falling, single point]

C/C(=C\c1ccccc1)C(=O)Nc1cc(C)on1
AC50 [1]: 1.16 µM [rising, full curve, poor fit]

O=C(CCCOc1ccc(Cl)cc1Cl)Nc1ncccn1
AC50 [1]: 3.55 µM [rising, partial curve, poor fit]

O=C(Nc1ccccc1N1CCN(C(=O)c2ccc(Cl)cc2)CC1)c1ccc([N+](=O)[O-])o1
AC50 [1]: 8.91 µM [rising, partial curve, poor fit]

CC(=O)N(CCC(c1ccco1)C(C)C)Cc1ccc(Cl)cc1 (stereo unspecified)
AC50 [1]: 35.5 µM [falling, single point]

Cn1c(=O)c2ncn(CC(=O)Nc3cccc(-c4nc5ccccc5s4)c3)c2n(C)c1=O
AC50 [1]: 0.224 µM [falling, full curve, poor fit]

Cc1cc(C(=O)CSc2nnc(-c3cccs3)n2Cc2ccccc2)c(C)n1C
AC50 [1]: 35.5 µM [falling, partial curve, poor fit]

O=C1NC(=O)/C(=C\c2ccc(OCc3cccc(C(=O)O)c3)c(Cl)c2)N1
AC50 [1]: 11.2 µM [falling, partial curve]

O=C(O)Cc1c[nH]c2cccc(O)c12
AC50 [1]: 10 µM [falling, partial curve, poor fit]

COc1cc(/C=N/NC(=O)c2cccc(NC(=O)c3ccccc3Cl)c2)ccc1O
AC50 [1]: 5.01 µM [falling, partial curve, poor fit]

COC(=O)Nc1ccc(S(=O)(=O)NC2CCS(=O)(=O)C2)cc1 (stereo unspecified)
AC50 [1]: 2.82 µM [rising, single point]

O=C(O)c1cnn(-c2nc(-c3ccc(Cl)cc3)cs2)c1C(F)(F)F
AC50 [1]: 35.5 µM [falling, single point]

COCC(=O)Nc1sc2c(c1C(=O)OC)CCCC2
AC50 [1]: 16.4 µM [rising, partial curve, poor fit]

COC(=O)c1nnn(-c2cc(Cl)cc(Cl)c2)c1C(=O)OC
AC50 [1]: 2.82 µM [rising, full curve, poor fit]

CN(/N=C/c1ccccc1Cl)c1ncc(Cl)cc1C(F)(F)F
AC50 [1]: 3.16 µM [rising, single point]

C[C@]12c3[nH]c4cc(-c5ccco5)ccc4c3CCN1C(=O)[C@@H](CC(=O)NCCN1CCOCC1)C[C@@H]2C(=O)N1CCCCC1
AC50 [1]: 29.1 µM [falling, single point]

CCOC(=O)CN(C(=O)CSc1nnc(Cc2ccccc2)n1-c1ccc(C)cc1)c1ccccc1
AC50 [2]: 16.4 µM [rising, partial curve, poor fit]

O=C(CSc1ccc(-c2ccccc2)nn1)N1CCCc2ccccc21
AC50 [1]: 4.61 µM [falling, partial curve, poor fit]

Cc1ccc(/C=N/NC(=O)c2nn(C)cc2Cl)cc1
AC50 [1]: 4.11 µM [falling, partial curve]

CS(=O)(=O)N(CC(=O)N1CCN(c2ccc(F)cc2)CC1)c1cccc(Cl)c1
AC50 [1]: 0.116 µM [falling, full curve, poor fit]

Cc1noc(C)c1S(=O)(=O)Nc1ccc(C(=O)N2CCN(c3cccc(Cl)c3)CC2)cc1
AC50 [1]: 8.2 µM [falling, partial curve, poor fit]

CCN(CC)C(=O)CSC(Nc1ccc(F)cc1)=C(C#N)C#N
AC50 [1]: 10 µM [falling, partial curve]
AC50 [2]: 35.5 µM [rising, partial curve, poor fit]

CC(C)COP(=O)(c1ccc(N(C)C)cc1)C(O)c1ccccn1 (stereo unspecified)
AC50 [1]: 2.82 µM [rising, full curve, poor fit]

CCNc1nc(N2CCCCC2)nc(-n2nnc(C(=O)OCC)c2C)n1
AC50 [1]: 6.51 µM [rising, single point]

CN1CCc2c(sc3c2C(=O)NC(c2ccc(-c4ccc(Cl)cc4)o2)N3)C1 (stereo unspecified)
AC50 [1]: 1.41 µM [falling, full curve]

CC(=O)Nc1ccc(NC(=O)C(F)(F)F)cc1
AC50 [1]: 16.4 µM [rising, partial curve, poor fit]

Cc1ccc(C(=O)Nc2nccs2)cc1
AC50 [1]: 7.94 µM [falling, partial curve]

Oc1ccc(-c2cccc(-c3ccc(O)cc3)n2)cc1
AC50 [2]: 11.2 µM [falling, partial curve, poor fit]

O=C(Nc1ccccc1)C(Cl)C(=O)c1ccccc1 (stereo unspecified)
AC50 [1]: 12.6 µM [falling, partial curve, poor fit]
AC50 [2]: 17.8 µM [falling, partial curve, poor fit]

CC(Oc1ccc2ccccc2c1)C(=O)NNC(=S)NC(=O)c1ccco1 (stereo unspecified)
AC50 [1]: 29.1 µM [rising, single point]
